Experimental data published in article PMC11846820, “Inhibition of DYRK1B BY C81 impedes inflammatory processes in leukocytes by reducing STAT3 activity” (Cellular and Molecular Life Sciences: CMLS, 2025).
No constants are given. Whether binding was seen depends on the method and setting. Binding seen in cells or lysates may run through a third protein. Some results given as binding are weak or reduced against the parent protein; the word gives no strength.

Amino acid sequences for entries named in this document (tags omitted).
UniProt P40763: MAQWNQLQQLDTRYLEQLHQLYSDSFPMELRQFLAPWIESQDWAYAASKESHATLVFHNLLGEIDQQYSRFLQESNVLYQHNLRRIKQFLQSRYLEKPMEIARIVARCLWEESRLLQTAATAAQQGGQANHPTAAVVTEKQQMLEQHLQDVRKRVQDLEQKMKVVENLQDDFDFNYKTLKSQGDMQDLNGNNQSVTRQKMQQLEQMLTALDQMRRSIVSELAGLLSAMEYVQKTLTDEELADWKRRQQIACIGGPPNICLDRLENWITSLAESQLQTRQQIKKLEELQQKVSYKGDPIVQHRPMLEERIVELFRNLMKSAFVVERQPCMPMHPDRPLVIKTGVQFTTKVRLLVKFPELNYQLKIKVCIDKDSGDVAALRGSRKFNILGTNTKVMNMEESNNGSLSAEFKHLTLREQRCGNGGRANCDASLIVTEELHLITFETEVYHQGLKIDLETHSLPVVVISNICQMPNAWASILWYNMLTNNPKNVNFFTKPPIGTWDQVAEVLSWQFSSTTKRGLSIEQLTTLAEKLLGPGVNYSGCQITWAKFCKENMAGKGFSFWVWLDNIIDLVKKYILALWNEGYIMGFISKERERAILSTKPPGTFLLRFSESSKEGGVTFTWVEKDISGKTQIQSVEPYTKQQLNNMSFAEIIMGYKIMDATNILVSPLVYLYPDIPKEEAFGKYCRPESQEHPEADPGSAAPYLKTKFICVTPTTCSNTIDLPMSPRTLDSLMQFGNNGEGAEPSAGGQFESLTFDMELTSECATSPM

Biological target: STAT3, NanoLuc or HaloTag fusion (UniProt P40763)
Experiment: FRET or BRET; NanoBRET in intact HEK293T cells co-transfected with NanoLuc and HaloTag fusions of DYRK1B and STAT3; HaloTag NanoBRET 618 Ligand; 37 °C/5% CO2; 450 nm donor and 610 nm acceptor filters

binding: binds
Substance: dual-specificity regulated kinase 1B (DYRK1B), NanoLuc or HaloTag fusion (from UniProt Q9Y463-1 1-629) (enzyme)
